The values that follow come from PMC3689047.

Sequences of proteins named here, by UniProt entry; tags and fusion partners are left off. A change or cut given only in a name is not applied to a line headed by its entry. Residues count along the entry.
UniProt O00303: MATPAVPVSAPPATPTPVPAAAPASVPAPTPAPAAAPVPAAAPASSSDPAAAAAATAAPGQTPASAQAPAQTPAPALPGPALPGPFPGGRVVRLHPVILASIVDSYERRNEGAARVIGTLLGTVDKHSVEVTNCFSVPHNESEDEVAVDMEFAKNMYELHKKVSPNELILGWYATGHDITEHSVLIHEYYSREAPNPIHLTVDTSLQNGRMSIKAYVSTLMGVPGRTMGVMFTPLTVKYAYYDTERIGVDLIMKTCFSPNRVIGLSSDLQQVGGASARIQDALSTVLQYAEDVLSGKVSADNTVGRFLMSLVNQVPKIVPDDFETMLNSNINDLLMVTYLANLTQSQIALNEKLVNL
GST-eIF3f aa1-113 (N-terminal region of eIF3f): residues 1-113 of O00303

Experiment [1] deals with T1, hMSH4 (human MutS homologue 4), full-length, GAL4-BD fusion (human) (UniProt O15457).
T1 sequence: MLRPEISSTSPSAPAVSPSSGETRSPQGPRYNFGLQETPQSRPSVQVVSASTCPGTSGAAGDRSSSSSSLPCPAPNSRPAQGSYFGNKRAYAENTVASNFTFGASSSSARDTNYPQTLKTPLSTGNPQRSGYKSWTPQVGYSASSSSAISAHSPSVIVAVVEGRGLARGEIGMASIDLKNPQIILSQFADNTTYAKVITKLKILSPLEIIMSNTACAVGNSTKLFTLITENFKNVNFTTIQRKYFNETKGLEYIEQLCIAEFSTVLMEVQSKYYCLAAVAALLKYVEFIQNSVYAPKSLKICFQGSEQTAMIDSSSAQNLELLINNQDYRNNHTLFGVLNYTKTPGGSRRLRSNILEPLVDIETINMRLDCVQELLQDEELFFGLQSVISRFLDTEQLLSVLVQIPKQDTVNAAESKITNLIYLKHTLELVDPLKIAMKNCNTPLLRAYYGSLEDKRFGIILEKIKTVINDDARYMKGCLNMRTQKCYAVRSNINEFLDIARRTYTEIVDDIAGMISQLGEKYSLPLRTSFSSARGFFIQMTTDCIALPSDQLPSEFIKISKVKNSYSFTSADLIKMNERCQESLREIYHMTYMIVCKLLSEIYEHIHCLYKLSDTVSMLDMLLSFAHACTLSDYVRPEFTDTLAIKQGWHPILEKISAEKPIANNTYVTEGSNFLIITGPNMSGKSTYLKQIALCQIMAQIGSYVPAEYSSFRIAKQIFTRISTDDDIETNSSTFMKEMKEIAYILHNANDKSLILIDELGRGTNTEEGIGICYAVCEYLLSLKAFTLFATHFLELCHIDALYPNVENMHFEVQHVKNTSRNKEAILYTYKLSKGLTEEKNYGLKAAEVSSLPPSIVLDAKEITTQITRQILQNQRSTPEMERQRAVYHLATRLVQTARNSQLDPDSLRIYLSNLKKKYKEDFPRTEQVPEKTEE
Put plainly: two-hybrid; pairwise analysis in S. cerevisiae strain AH109; positive interactions by activation of the ADE2 and HIS3 reporter genes.

Experiment [2] concerns the target T1, hMSH4 (human MutS homologue 4), full-length, GAL4-BD fusion (human). In words: two-hybrid; library screen: full-length hMSH4 as GAL4-BD bait (pAS2-1) against a human ovary cDNA library in S. cerevisiae strain Y187.
Experiment [3] addresses Flag-tagged eIF3f (human) (UniProt O00303). In words: co-IP; Myc-tagged hMSH4 or hMSH4sv co-expressed with Flag-eIF3f in 293T cells; IP with anti-Myc or anti-Flag, Protein A/rProtein G-Agarose beads; also in 293T/eIF3f cells with or without 10 Gy IR (lysates 2 hrs post-IR).
The target of experiment [4] is GST-eIF3f aa1-113 (N-terminal region of eIF3f) (human) (UniProt O00303). In words: pull-down; GST pull-down of recombinant His6-hMSH4 with GST-eIF3f fusion proteins on Glutathione-Sepharose 4B beads.
The target of experiment [5] is GST-eIF3f, full-length (human) (UniProt O00303). The description is as above.

Results are given in words; binding and its absence hold for the method and conditions named. For some assays here: Binding seen in cells or lysates may run through a third protein. Some entries that bind do so weakly or less than the wild type. Where a sequence is shown, tags or fusion partners need not be part of it.

For “eIF3f (eukaryotic translation initiation factor 3, subunit F), full-length clone from the human ovary cDNA library (from UniProt O00303 1-357)”, the binding entry in experiment [1] and in experiment [2] was “binds” throughout.

B1: Myc-tagged hMSH4, full-length (protein, UniProt O15457 1-936)
chain: MLRPEISSTSPSAPAVSPSSGETRSPQGPRYNFGLQETPQSRPSVQVVSASTCPGTSGAAGDRSSSSSSLPCPAPNSRPAQGSYFGNKRAYAENTVASNFTFGASSSSARDTNYPQTLKTPLSTGNPQRSGYKSWTPQVGYSASSSSAISAHSPSVIVAVVEGRGLARGEIGMASIDLKNPQIILSQFADNTTYAKVITKLKILSPLEIIMSNTACAVGNSTKLFTLITENFKNVNFTTIQRKYFNETKGLEYIEQLCIAEFSTVLMEVQSKYYCLAAVAALLKYVEFIQNSVYAPKSLKICFQGSEQTAMIDSSSAQNLELLINNQDYRNNHTLFGVLNYTKTPGGSRRLRSNILEPLVDIETINMRLDCVQELLQDEELFFGLQSVISRFLDTEQLLSVLVQIPKQDTVNAAESKITNLIYLKHTLELVDPLKIAMKNCNTPLLRAYYGSLEDKRFGIILEKIKTVINDDARYMKGCLNMRTQKCYAVRSNINEFLDIARRTYTEIVDDIAGMISQLGEKYSLPLRTSFSSARGFFIQMTTDCIALPSDQLPSEFIKISKVKNSYSFTSADLIKMNERCQESLREIYHMTYMIVCKLLSEIYEHIHCLYKLSDTVSMLDMLLSFAHACTLSDYVRPEFTDTLAIKQGWHPILEKISAEKPIANNTYVTEGSNFLIITGPNMSGKSTYLKQIALCQIMAQIGSYVPAEYSSFRIAKQIFTRISTDDDIETNSSTFMKEMKEIAYILHNANDKSLILIDELGRGTNTEEGIGICYAVCEYLLSLKAFTLFATHFLELCHIDALYPNVENMHFEVQHVKNTSRNKEAILYTYKLSKGLTEEKNYGLKAAEVSSLPPSIVLDAKEITTQITRQILQNQRSTPEMERQRAVYHLATRLVQTARNSQLDPDSLRIYLSNLKKKYKEDFPRTEQVPEKTEE
For the molecule B1, in experiment [3], the binding result was “binds”.

B2: recombinant His6-hMSH4 (protein, UniProt O15457 1-936)
chain: MLRPEISSTSPSAPAVSPSSGETRSPQGPRYNFGLQETPQSRPSVQVVSASTCPGTSGAAGDRSSSSSSLPCPAPNSRPAQGSYFGNKRAYAENTVASNFTFGASSSSARDTNYPQTLKTPLSTGNPQRSGYKSWTPQVGYSASSSSAISAHSPSVIVAVVEGRGLARGEIGMASIDLKNPQIILSQFADNTTYAKVITKLKILSPLEIIMSNTACAVGNSTKLFTLITENFKNVNFTTIQRKYFNETKGLEYIEQLCIAEFSTVLMEVQSKYYCLAAVAALLKYVEFIQNSVYAPKSLKICFQGSEQTAMIDSSSAQNLELLINNQDYRNNHTLFGVLNYTKTPGGSRRLRSNILEPLVDIETINMRLDCVQELLQDEELFFGLQSVISRFLDTEQLLSVLVQIPKQDTVNAAESKITNLIYLKHTLELVDPLKIAMKNCNTPLLRAYYGSLEDKRFGIILEKIKTVINDDARYMKGCLNMRTQKCYAVRSNINEFLDIARRTYTEIVDDIAGMISQLGEKYSLPLRTSFSSARGFFIQMTTDCIALPSDQLPSEFIKISKVKNSYSFTSADLIKMNERCQESLREIYHMTYMIVCKLLSEIYEHIHCLYKLSDTVSMLDMLLSFAHACTLSDYVRPEFTDTLAIKQGWHPILEKISAEKPIANNTYVTEGSNFLIITGPNMSGKSTYLKQIALCQIMAQIGSYVPAEYSSFRIAKQIFTRISTDDDIETNSSTFMKEMKEIAYILHNANDKSLILIDELGRGTNTEEGIGICYAVCEYLLSLKAFTLFATHFLELCHIDALYPNVENMHFEVQHVKNTSRNKEAILYTYKLSKGLTEEKNYGLKAAEVSSLPPSIVLDAKEITTQITRQILQNQRSTPEMERQRAVYHLATRLVQTARNSQLDPDSLRIYLSNLKKKYKEDFPRTEQVPEKTEE
Turning to B2, the binding entry in experiment [4] and in experiment [5] was “binds” in each case.
